According to paper PMC9266683:
Results are given in words; binding and its absence hold for the method and conditions named. For some of these results: In cells and extracts the contact can be indirect. Some entries that bind do so weakly or less than the wild type. Sequences can lack the tags named with a protein. Each block holds one binder with its values, some of them ahead of it.

Sequences of proteins named here, by UniProt entry; tags and fusion partners are left off. A change or cut given only in a name is not applied to a line headed by its entry. A line that says so, or that is headed by a name, gives the form on record, which may keep a tag or linker. Residues count along the entry.
UniProt O48686: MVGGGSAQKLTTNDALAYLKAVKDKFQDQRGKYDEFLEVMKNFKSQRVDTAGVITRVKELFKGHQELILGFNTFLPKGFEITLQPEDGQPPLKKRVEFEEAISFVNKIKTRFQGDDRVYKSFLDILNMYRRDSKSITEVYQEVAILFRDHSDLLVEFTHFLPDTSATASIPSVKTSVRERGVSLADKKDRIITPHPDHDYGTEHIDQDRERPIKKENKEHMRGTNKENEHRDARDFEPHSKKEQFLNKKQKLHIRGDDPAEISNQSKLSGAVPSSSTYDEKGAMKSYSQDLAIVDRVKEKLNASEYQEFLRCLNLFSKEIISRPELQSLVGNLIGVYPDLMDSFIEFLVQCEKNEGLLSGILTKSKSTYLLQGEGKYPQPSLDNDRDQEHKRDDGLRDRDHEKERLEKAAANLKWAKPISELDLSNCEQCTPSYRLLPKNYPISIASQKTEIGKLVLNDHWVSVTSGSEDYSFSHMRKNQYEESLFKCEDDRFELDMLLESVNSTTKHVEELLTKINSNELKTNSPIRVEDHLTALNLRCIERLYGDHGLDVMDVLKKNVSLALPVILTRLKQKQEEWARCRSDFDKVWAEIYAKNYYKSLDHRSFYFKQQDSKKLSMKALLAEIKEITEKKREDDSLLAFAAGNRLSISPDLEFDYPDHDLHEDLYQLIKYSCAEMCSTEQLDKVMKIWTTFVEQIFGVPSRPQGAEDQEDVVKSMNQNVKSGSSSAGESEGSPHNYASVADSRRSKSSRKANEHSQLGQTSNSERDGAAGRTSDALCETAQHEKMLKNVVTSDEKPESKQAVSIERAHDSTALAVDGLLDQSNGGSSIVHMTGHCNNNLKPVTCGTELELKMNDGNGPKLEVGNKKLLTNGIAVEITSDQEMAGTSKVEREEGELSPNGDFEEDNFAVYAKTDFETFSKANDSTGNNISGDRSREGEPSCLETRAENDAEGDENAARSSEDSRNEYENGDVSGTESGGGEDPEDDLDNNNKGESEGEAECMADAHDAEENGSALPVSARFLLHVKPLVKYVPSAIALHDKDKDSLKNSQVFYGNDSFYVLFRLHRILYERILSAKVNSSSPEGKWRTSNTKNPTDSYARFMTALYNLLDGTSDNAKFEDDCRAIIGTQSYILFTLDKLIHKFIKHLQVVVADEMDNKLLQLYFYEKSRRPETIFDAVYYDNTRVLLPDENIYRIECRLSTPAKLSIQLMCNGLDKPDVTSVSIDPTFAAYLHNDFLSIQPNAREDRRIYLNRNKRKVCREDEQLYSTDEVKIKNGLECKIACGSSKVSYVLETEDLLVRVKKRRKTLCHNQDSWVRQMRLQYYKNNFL
SNL3-PAH (aa 1–390), fused to the C-terminal half of luciferase (cLUC): residues 1-390 of O48686

Assays:
[1] = target: T1, SNL2 (SIN3-LIKE 2), full length, fused to the GAL4 binding domain (Arabidopsis thaliana) (UniProt Q9LFQ3); experiment: two-hybrid; Matchmaker GAL4 two-hybrid system 3, yeast AH109; VAL1 constructs in pGADT7 (AD), SNL constructs in pGBKT7 (BD); growth on medium lacking Trp, Leu, His and Ade, 3-5 d at 30 °C
T1 sequence: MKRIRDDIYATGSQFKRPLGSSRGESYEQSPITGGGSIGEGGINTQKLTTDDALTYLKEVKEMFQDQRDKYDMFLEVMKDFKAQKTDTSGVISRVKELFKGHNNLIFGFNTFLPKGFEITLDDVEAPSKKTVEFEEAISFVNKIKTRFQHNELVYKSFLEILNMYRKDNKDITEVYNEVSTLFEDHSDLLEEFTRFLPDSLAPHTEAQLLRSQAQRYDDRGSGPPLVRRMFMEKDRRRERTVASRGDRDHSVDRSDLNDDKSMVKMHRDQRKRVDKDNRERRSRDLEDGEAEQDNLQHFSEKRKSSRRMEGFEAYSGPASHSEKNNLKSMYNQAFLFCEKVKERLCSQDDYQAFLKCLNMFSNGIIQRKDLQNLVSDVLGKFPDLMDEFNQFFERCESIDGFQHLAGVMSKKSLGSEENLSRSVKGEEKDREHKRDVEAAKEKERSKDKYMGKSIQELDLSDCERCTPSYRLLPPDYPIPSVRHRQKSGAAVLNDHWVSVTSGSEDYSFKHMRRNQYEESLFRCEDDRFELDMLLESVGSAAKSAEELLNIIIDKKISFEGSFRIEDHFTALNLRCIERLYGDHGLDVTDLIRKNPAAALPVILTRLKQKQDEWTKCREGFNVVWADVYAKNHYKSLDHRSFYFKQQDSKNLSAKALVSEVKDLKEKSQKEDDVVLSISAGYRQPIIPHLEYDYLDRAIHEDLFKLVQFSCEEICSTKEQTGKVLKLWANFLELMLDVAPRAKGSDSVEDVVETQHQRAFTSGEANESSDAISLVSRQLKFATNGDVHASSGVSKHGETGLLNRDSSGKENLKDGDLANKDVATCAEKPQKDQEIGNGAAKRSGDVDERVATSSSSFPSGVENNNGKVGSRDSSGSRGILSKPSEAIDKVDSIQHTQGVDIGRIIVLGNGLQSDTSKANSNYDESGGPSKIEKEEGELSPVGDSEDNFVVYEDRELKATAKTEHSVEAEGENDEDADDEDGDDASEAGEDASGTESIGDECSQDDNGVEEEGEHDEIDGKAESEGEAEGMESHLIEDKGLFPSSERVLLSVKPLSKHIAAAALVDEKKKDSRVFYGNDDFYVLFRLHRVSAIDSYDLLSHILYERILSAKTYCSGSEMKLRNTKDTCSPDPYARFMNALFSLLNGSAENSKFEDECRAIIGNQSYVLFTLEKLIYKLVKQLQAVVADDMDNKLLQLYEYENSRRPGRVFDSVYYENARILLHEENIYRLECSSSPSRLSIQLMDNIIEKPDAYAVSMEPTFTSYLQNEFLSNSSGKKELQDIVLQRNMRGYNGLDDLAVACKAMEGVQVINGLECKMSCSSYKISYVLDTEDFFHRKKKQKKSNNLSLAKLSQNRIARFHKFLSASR

[2] = target: T2, SNL1-PAH (aa 1–450), fused to the GAL4 binding domain (Arabidopsis thaliana) (UniProt Q9SRH9); experiment: as above
T2 sequence: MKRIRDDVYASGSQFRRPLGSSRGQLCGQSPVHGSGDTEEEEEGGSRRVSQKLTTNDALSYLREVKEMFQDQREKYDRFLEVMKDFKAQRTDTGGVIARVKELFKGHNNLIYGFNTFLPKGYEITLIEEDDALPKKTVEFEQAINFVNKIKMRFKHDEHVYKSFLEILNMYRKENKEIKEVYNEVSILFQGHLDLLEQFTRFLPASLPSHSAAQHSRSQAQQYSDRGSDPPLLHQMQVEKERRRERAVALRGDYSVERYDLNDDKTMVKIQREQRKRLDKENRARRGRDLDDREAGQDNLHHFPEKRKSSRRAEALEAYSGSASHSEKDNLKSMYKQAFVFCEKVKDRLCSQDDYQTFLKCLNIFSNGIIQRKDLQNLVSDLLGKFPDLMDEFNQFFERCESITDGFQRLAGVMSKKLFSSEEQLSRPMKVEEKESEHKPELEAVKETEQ

[3] = target: T3, SNL6-PAH (aa 1–300), fused to the GAL4 binding domain (Arabidopsis thaliana) (UniProt Q9XIK6); experiment: as above
T3 sequence: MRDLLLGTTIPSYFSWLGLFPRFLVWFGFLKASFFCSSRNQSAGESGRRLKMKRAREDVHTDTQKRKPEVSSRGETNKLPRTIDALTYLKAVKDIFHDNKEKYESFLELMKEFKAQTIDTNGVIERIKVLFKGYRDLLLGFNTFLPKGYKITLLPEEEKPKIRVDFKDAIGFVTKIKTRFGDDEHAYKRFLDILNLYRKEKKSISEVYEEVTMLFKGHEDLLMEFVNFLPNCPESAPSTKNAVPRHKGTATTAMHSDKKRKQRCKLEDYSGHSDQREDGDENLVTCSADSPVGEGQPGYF

[4] = target: SNL3-PAH (aa 1–390), fused to the C-terminal half of luciferase (cLUC) (Arabidopsis thaliana) (UniProt O48686); experiment: split reporter; firefly luciferase complementation imaging (LCI); VAL1 constructs fused to nLUC, SNL constructs to cLUC; co-infiltrated into N. benthamiana leaves, 22 °C for 48 h, imaged with a CCD
[5] = target: SNL3, intact, fused to the C-terminal half of luciferase (cLUC) (Arabidopsis thaliana) (UniProt O48686); experiment: as above

B2: VAL1-CW (aa 458–673), fused to the N-terminal half of luciferase (nLUC) (domain or fragment, UniProt Q8W4L5 458-673)
chain: DDPTRVKEKKRTRTIGAKNKRLLLHSEESMELRLTWEEAQDLLRPSPSVKPTIVVIEEQEIEEYDEPPVFGKRTIVTTKPSGEQERWATCDDCSKWRRLPVDALLSFKWTCIDNVWDVSRCSCSAPEESLKELENVLKVGREHKKRRTGESQAAKSQQEPCGLDALASAAVLGDTIGEPEVATTTRHPRHRAGCSCIVCIQPPSGKGRHKPTCGCT
binding [4]: binds
binding [5]: binds

B3: VAL1 (VIVIPAROUS1/ABSCISIC ACID …3-LIKE1), full length, fused to the GAL4 activating domain (protein, UniProt Q8W4L5 1-790)
chain: MFEVKMGSKMCMNASCGTTSTVEWKKGWPLRSGLLADLCYRCGSAYESSLFCEQFHKDQSGWRECYLCSKRLHCGCIASKVTIELMDYGGVGCSTCACCHQLNLNTRGENPGVFSRLPMKTLADRQHVNGESGGRNEGDLFSQPLVMGGDKREEFMPHRGFGKLMSPESTTTGHRLDAAGEMHESSPLQPSLNMGLAVNPFSPSFATEAVEGMKHISPSQSNMVHCSASNILQKPSRPAISTPPVASKSAQARIGRPPVEGRGRGHLLPRYWPKYTDKEVQQISGNLNLNIVPLFEKTLSASDAGRIGRLVLPKACAEAYFPPISQSEGIPLKIQDVRGREWTFQFRYWPNNNSRMYVLEGVTPCIQSMMLQAGDTVTFSRVDPGGKLIMGSRKAANAGDMQGCGLTNGTSTEDTSSSGVTENPPSINGSSCISLIPKELNGMPENLNSETNGGRIGDDPTRVKEKKRTRTIGAKNKRLLLHSEESMELRLTWEEAQDLLRPSPSVKPTIVVIEEQEIEEYDEPPVFGKRTIVTTKPSGEQERWATCDDCSKWRRLPVDALLSFKWTCIDNVWDVSRCSCSAPEESLKELENVLKVGREHKKRRTGESQAAKSQQEPCGLDALASAAVLGDTIGEPEVATTTRHPRHRAGCSCIVCIQPPSGKGRHKPTCGCTVCSTVKRRFKTLMMRRKKKQLERDVTAAEDKKKKDMELAESDKSKEEKEVNTARIDLNSDPYNKEDVEAVAVEKEESRKRAIGQCSGVVAQDASDVLGVTELEGEGKNVREEPRVSS
binding [1]: binds
binding [2]: binds
binding [3]: binds

The remaining lines, values ahead:

binding [1]: binds
binding [2]: binds
binding [3]: binds
B1: VAL1-CW (aa 458–673), fused to the GAL4 activating domain (domain or fragment, UniProt Q8W4L5 458-673)
chain: B2 chain

binding [4]: binds
binding [5]: binds
B4: VAL1, intact, fused to the N-terminal half of luciferase (nLUC) (protein, UniProt Q8W4L5 1-790)
chain: B3 chain
